{"source": "PubChem BioAssay AID493014", "about": "(National Center for Advancing Translational Sciences (NCATS), 2011)", "assay": "qHTS Assay to Find Inhibitors of Chronic Active B-Cell Receptor Signaling; also: potency is read from the fitted curve at half-maximal effect;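 as to activity change, negative = inhibition: plate controls were basal doxycycline-induced cells for no effect and cells given 10 µM MG132 for full effect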", "settings": "ABC-DLBCL IkBa-CBG/CBR reporter, luminescence ratio (green luciferase fused to IkBa over red control in TMD8 lymphoma cells), 4 h", "how_it_was_run": "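Cell line TMD8 (human ABC DLBCL), stably expressing tet-inducible CBG68-IkBa fusion and CBR; IMDM/0.5% FBS; cpd up to 46 uM; dox induction, 4 h, 37C/5% CO2; dual luminescence; green/red ratio; MG132 control.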", "key": {"[1]": {"settings": "activity change, negative = inhibition: at 46.1 µM (top of the series) unless noted"}}, "note": "The campaign covered roughly 340,000 compounds. About 170 (0.05%) were called active. Inconclusive results, whose numbers are uncertain, are shown with a selection of clear calls. Calls follow the shape of the dose curve; as a rule, active = well fitted inhibition curve with a large enough effect in the signal ratio, with a control signal flat (not every such curve was filed as active); inconclusive = small, poorly fitted or top-dose-only effect, or effect the other way, or a change in a side signal; inactive = flat fitted curve, though single readings scatter; the % refers to the signal ratio. Where the call is inconclusive, the potency comes from a doubtful curve fit.", "data": [{"molecule": "Cc1cccc(CC2CC(=O)N(C3CCCCC3)C2=O)c1", "note": "(configuration not stated)", "values": [{"measurement": "Potency", "setting": "[1]", "value": "inconclusive: 16.4 µM [rising, partial curve, poor fit]"}]}, {"molecule": "NC(N)=Nc1nc2ccc(Br)cc2c(=O)[nH]1", "values": [{"measurement": "activity change, negative = inhibition", "setting": "[1]", "value": "inconclusive: 19.4%"}]}, {"molecule": "CC(C)(C)OC(=O)N[C@@H](Cc1ccccc1)c1nnc(SCC(N)=O)o1", "values": [{"measurement": "activity change, negative = inhibition", "setting": "[1]", "value": "inactive"}]}, {"molecule": "CCN(CC)S(=O)(=O)c1cc(NS(=O)(=O)c2cccc(Cl)c2)ccc1C", "values": [{"measurement": "Potency", "setting": "[1]", "value": "inconclusive: 3.26 µM [rising, partial curve, poor fit]"}]}, {"molecule": "COc1ccc(-c2nc3c(Br)c(N)c(Br)cc3o2)cc1", "values": [{"measurement": "activity change, negative = inhibition", "setting": "[1]", "value": "inconclusive: 7.94%"}]}, {"molecule": "O=S(=O)(c1ccc2c(c1)OCCO2)N1CCN(Cc2ccc3c(c2)OCO3)CC1", "values": [{"measurement": "Potency", "setting": "[1]", "value": "inconclusive: 0.58 µM [falling, partial curve, poor fit]"}]}, {"molecule": "COC(=O)c1cc(C)nc2c1C(=O)C(=O)C=C2N1CCOCC1", "values": [{"measurement": "activity change, negative = inhibition", "setting": "[1]", "value": "inconclusive: -4.59%"}]}, {"molecule": "O=C(NCC(=O)N(c1ccc(F)cc1)C(C(=O)NC1CCCCC1)c1ccncc1)c1ccco1", "note": "(configuration not stated)", "values": [{"measurement": "activity change, negative = inhibition", "setting": "[1]", "value": "inactive"}]}, {"molecule": "O=C(CCC(=O)N1CCN(c2ccc(O)cc2)CC1)c1cccs1", "values": [{"measurement": "activity change, negative = inhibition", "setting": "[1]", "value": "inconclusive: -1.25%"}]}, {"molecule": "CCN(CC)CCN1C(=O)c2oc3ccccc3c(=O)c2C1c1ccccc1", "note": "(configuration not stated)", "values": [{"measurement": "activity change, negative = inhibition", "setting": "[1]", "value": "inconclusive: -12.2%"}]}, {"molecule": "CCOC(=O)CSc1nc(N)c(C#N)c(-c2cccs2)c1C#N", "values": [{"measurement": "activity change, negative = inhibition", "setting": "[1]", "value": "inconclusive: 19.8%"}]}, {"molecule": "CCOC(=O)N1CCC(NC(=O)c2cc(C(=O)Nc3ccc(OC)c(OC)c3)ccc2CO)CC1", "values": [{"measurement": "activity change, negative = inhibition", "setting": "[1]", "value": "inconclusive: 4.49%"}]}, {"molecule": "CN(C)CC(=O)c1c[nH]c2ccccc12", "values": [{"measurement": "Potency", "setting": "[1]", "value": "inconclusive: 8.91 µM [falling, partial curve, poor fit]"}]}, {"molecule": "O=C(CCc1ccccc1)NNc1ccc(F)cc1", "values": [{"measurement": "activity change, negative = inhibition", "setting": "[1]", "value": "inconclusive: 22.6%"}]}, {"molecule": "CCCn1cnc2cc(NCc3ccccn3)ccc21", "values": [{"measurement": "Potency", "setting": "[1]", "value": "inconclusive: 31.6 µM [rising, single point]"}]}, {"molecule": "O=C(CN1C(=O)/C(=C2/SC(=S)N(CCS(=O)(=O)O)C2=O)c2ccccc21)Nc1cccc(C(F)(F)F)c1", "values": [{"measurement": "activity change, negative = inhibition", "setting": "[1]", "value": "inactive"}]}, {"molecule": "Cc1ccc(NC(=O)CCC(=O)N/N=C/c2ccccc2O)cc1", "values": [{"measurement": "activity change, negative = inhibition", "setting": "[1]", "value": "inconclusive: 5.38%"}]}, {"molecule": "C=CCNc1nc2ccccc2nc1NS(=O)(=O)c1cccs1", "values": [{"measurement": "activity change, negative = inhibition", "setting": "[1]", "value": "inconclusive: 10%"}]}, {"molecule": "COCCN1CCc2c(C)nc3c(-c4ccc(OC)c(OC)c4)cnn3c21", "values": [{"measurement": "activity change, negative = inhibition", "setting": "[1]", "value": "inconclusive: 4.32%"}]}, {"molecule": "O=C(c1ccc2c(=O)n(CCc3ccccc3)c(=O)[nH]c2c1)N1CCN(c2ccccc2)CC1", "values": [{"measurement": "activity change, negative = inhibition", "setting": "[1]", "value": "inactive"}]}, {"molecule": "CCCCn1c(N)c(N(CC)C(=O)c2ccc(-c3ccc(Cl)cc3)o2)c(=O)[nH]c1=O", "values": [{"measurement": "activity change, negative = inhibition", "setting": "[1]", "value": "inconclusive: 6.89%"}]}, {"molecule": "Cc1cccc(C(=O)NCCCNC(=O)c2ccccn2)c1", "values": [{"measurement": "activity change, negative = inhibition", "setting": "[1]", "value": "inconclusive: -2.6%"}]}, {"molecule": "CCN(C(=O)COC(=O)c1ccc(Cl)c(S(=O)(=O)N2CCCCC2)c1)C1CCS(=O)(=O)C1", "note": "(configuration not stated)", "values": [{"measurement": "activity change, negative = inhibition", "setting": "[1]", "value": "inconclusive: -19.8%"}]}, {"molecule": "Cc1csc(NC(=O)c2ccccc2)n1", "values": [{"measurement": "Potency", "setting": "[1]", "value": "inconclusive: 5.62 µM [activator, partial curve, poor fit]"}]}, {"molecule": "Cc1nc2nc(SCc3c(F)cccc3Cl)nn2c(C)c1Cc1ccccc1", "values": [{"measurement": "activity change, negative = inhibition", "setting": "[1]", "value": "inconclusive: 5.47%"}]}, {"molecule": "COc1ccc(-c2csc(NC(=O)C3CC(=O)N(Cc4ccco4)C3)n2)cc1", "note": "(configuration not stated)", "values": [{"measurement": "activity change, negative = inhibition", "setting": "[1]", "value": "inactive"}]}, {"molecule": "CC(C)(C)c1ccc(C(=O)NCCC(=O)N2CCN(c3ncccn3)CC2)cc1", "values": [{"measurement": "Potency", "setting": "[1]", "value": "inconclusive: 16.4 µM [falling, partial curve, poor fit]"}]}, {"molecule": "CC(C)CC(NC(=O)C(NC(=O)C(Cc1ccc(OCc2ccccc2)cc1)NC(=O)OC(C)(C)C)C(C)C)C(N)=O", "note": "(configuration not stated)", "values": [{"measurement": "activity change, negative = inhibition", "setting": "[1]", "value": "inactive"}]}, {"molecule": "COc1ccccc1/C=C/C=N/NC(=O)c1ccc(=O)n(C)c1", "values": [{"measurement": "Potency", "setting": "[1]", "value": "inconclusive: 29.1 µM [falling, single point]"}]}, {"molecule": "C[C@]12CCC(=O)C=C1C=C[C@@H]1[C@@H]2CC[C@@]2(C)[C@H]1CC[C@@]21CCC(=O)O1", "values": [{"measurement": "activity change, negative = inhibition", "setting": "[1]", "value": "inactive"}]}, {"molecule": "C/C(N)=C(/C#N)C(=O)COc1ccc(Cl)cc1Cl", "values": [{"measurement": "activity change, negative = inhibition", "setting": "[1]", "value": "inconclusive: 9.18%"}]}, {"molecule": "c1ccc2c(-c3[nH]ncc3CNCCCn3ncc4ccccc43)cccc2c1", "values": [{"measurement": "Potency", "setting": "[1]", "value": "inconclusive: 15.8 µM [rising, partial curve]"}]}, {"molecule": "COC(=O)c1cc(=O)n(-c2c(Cl)cc(C(F)(F)F)cc2Cl)[nH]1", "values": [{"measurement": "activity change, negative = inhibition", "setting": "[1]", "value": "inconclusive: 14.8%"}]}, {"molecule": "Oc1[nH]c2ccccc2c1N=Nc1nncc2ccccc12", "values": [{"measurement": "Potency", "setting": "[1]", "value": "inconclusive: 7.94 µM [falling, partial curve, poor fit]"}]}, {"molecule": "CCN(CC)C(=O)C(=O)Nc1ccc(F)c(Cl)c1", "values": [{"measurement": "activity change, negative = inhibition", "setting": "[1]", "value": "inconclusive: -1.92%"}]}, {"molecule": "Cc1ccccc1C(=O)Nc1cc(-c2cc(C(C)(C)C)oc2C)nn1C", "values": [{"measurement": "Potency", "setting": "[1]", "value": "inconclusive: 35.5 µM [falling, partial curve, poor fit]"}]}, {"molecule": "CCc1c(C)sc(NC(=S)N2CCN(S(C)(=O)=O)CC2)c1C(=O)OC", "values": [{"measurement": "activity change, negative = inhibition", "setting": "[1]", "value": "inconclusive: 0.337%"}]}, {"molecule": "CN1C(C(=O)Nc2ccccn2)=C(O)c2ccccc2S1(=O)=O", "values": [{"measurement": "activity change, negative = inhibition", "setting": "[1]", "value": "inconclusive: -2.28%"}, {"measurement": "activity change, negative = inhibition", "setting": "at 46.1 µM (top of the series)", "value": "inactive: -22.6%"}]}, {"molecule": "CN(C)c1ccc(N2C(=NC(=O)COc3ccccc3)SC3CS(=O)(=O)CC32)cc1", "note": "(configuration not stated)", "values": [{"measurement": "activity change, negative = inhibition", "setting": "[1]", "value": "inactive"}]}, {"molecule": "CCC(=O)Nc1nnc(SCC(=O)c2ccc3c(c2)Cc2ccccc2-3)s1", "values": [{"measurement": "Potency", "setting": "[1]", "value": "inconclusive: 3.98 µM [rising, partial curve]"}]}, {"molecule": "Cc1ccc(-c2c[n+](Cc3ccc(Cl)c(Cl)c3)c3n2CCC3)cc1", "values": [{"measurement": "activity change, negative = inhibition", "setting": "[1]", "value": "inconclusive: -6.59%"}]}, {"molecule": "O=C(Nc1nc2ccccc2[nH]1)NC1CCCCC1", "values": [{"measurement": "activity change, negative = inhibition", "setting": "[1]", "value": "inconclusive: -10.6%"}]}, {"molecule": "O=C(c1ccc(Cl)c([N+](=O)[O-])c1)N(c1ccccn1)c1ccccn1", "values": [{"measurement": "activity change, negative = inhibition", "setting": "[1]", "value": "inactive"}]}, {"molecule": "C/C=C(\\C)C(=O)OC1CC(C)(C)C[C@H]2C3=CC[C@@H]4[C@@]5(C)CCC(O[C@@H]6O[C@@H](C(=O)O)[C@@H](O)C(O[C@@H]7OC[C@H](O)[C@@H](O)[C@@H]7O[C@@H]7OC(CO)C(O)[C@@H](O)[C@@H]7O)C6O[C@@H]6OC(CO)C(O)C(O)C6O)[C@@](C)(CO)[C@@H]5CC[C@]4(C)[C@]3(C)CC(O)[C@@]12CO", "note": "(some centres not stated)", "values": [{"measurement": "activity change, negative = inhibition", "setting": "[1]", "value": "inconclusive: 5.3%"}]}, {"molecule": "COc1cc(/C=N/NC(=O)Cn2nnc3ccccc32)ccc1O", "values": [{"measurement": "activity change, negative = inhibition", "setting": "[1]", "value": "inactive"}]}, {"molecule": "OCCC1CN(Cc2cc3c(cc2Cl)OCO3)CCN1Cc1ccccc1", "note": "(configuration not stated)", "values": [{"measurement": "Potency", "setting": "[1]", "value": "inconclusive: 35.5 µM [falling, partial curve, poor fit]"}]}]}
